# Assay results reported in PubChem BioAssay AID1671190 (National Center for Advancing Translational Sciences (NCATS), 2021).
# Chains of the proteins cited; added tags and fusions are not shown. Lines headed by an entry give the natural chain unless they say otherwise; changes in a name come on top.
# UniProt P18054: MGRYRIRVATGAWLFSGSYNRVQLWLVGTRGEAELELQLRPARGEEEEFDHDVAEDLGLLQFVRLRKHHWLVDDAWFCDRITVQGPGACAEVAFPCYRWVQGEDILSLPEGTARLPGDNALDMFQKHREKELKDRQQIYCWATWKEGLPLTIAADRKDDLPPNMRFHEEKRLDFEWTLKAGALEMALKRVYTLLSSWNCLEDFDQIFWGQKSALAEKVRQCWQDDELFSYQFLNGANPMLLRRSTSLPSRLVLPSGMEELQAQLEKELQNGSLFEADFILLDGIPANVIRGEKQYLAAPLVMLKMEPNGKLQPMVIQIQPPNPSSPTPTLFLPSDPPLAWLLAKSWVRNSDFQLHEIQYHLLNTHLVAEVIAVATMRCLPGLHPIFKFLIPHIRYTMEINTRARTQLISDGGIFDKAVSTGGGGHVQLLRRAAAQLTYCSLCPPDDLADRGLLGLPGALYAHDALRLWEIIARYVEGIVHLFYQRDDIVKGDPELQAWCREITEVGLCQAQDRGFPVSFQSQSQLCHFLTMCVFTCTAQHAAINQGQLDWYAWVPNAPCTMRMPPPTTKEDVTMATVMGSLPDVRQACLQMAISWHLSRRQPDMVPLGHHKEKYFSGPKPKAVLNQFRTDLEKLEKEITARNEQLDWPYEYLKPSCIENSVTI
# “And” between values parts separate entries of the source, which are not always exact repeats. Equal values may be shown once. Among all 580,000 compounds or so, about 6,100 (1.1%) were called active. Inconclusive results, whose numbers are uncertain, are shown with a selection of clear calls. Calls follow the shape of the dose curve; as a rule, active = well fitted inhibition curve with a large enough effect; inconclusive = small, poorly fitted or top-dose-only effect, or another doubt; inactive = no such curve, though single readings can be large or run the other way. Potencies beside an inconclusive call are fits to weak or partial responses and may not hold up.
# Target: Polyunsaturated fatty acid lipoxygenase ALOX12 (Homo sapiens) (UniProt P18054)
# Assay: Primary qHTS assay for inhibitors of human arachidonate 12S-lipoxygenase (ALOX12): Round 2
# Conditions: purified 12hLO, xylenol orange hydroperoxide absorbance; activity change, negative = inhibition: at 108 µM (top of the series)
# In short: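 Purified human 12hLO at 150 nM in 25 mM Hepes, 0.01% Triton X-100, pH 7.0, preincubated 15 min at room temperature with compound. Reaction started with 40 uM arachidonic acid, 30 min at room temperature. Hydroperoxide measured by Fe-xylenol orange, 573/405 nm absorbance ratio.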
# % is scaled to controls: 0 for no effect and ±100 for the full control effect; potency is read from the fitted curve at half-maximal effect.
Structure (SMILES),Potency,"activity change, negative = inhibition"
CC(N[C@H]1C[C@H]1c1ccccc1)c1ccc2c(c1)OCCO2 (stereo partly specified),"inconclusive: 54.4 µM [inhibitor, single point]",–
C/C(=N\Nc1ccccc1)c1c(O)n(-c2ccccc2)c(=O)[nH]c1=O,"inconclusive: 31.6 µM [inhibitor, partial curve, poor fit]",–
COc1cc(/C=C(/C)[N+](=O)[O-])cc(OC)c1OC,"inconclusive: 1.58 µM [inhibitor, full curve, poor fit]",–
COC(=O)C1=CCCN(C)C1,"inactive and inconclusive: 12.2 µM [inhibitor, partial curve, poor fit]",–
COc1ccc(CN2CCN(C(=O)Cc3ccccc3)CC2)cc1OC,"inconclusive: 2.24 µM [inhibitor, full curve, poor fit]",–
C=C(C)[C@H]1Cc2c(ccc3c2O[C@@H]2COc4cc(OC)c(OC)cc4[C@@H]2C3=O)O1,"inconclusive: 21.7 µM [inhibitor, partial curve] and inconclusive: 63.1 µM [inhibitor, partial curve, poor fit]",–
CN(C)C(=O)Oc1ccc2c(=O)c(-c3ccccc3)coc2c1,"inconclusive: 50.1 µM [inhibitor, partial curve, poor fit]",–
COC(=O)C1=C(c2ccccc2OCc2ccccc2)C[C@@H]2CC[C@H]1N2C(=O)NC1CCN(Cc2ccccc2)CC1,"inconclusive: 112 µM [inhibitor, single point]",–
COC(=O)C(c1ccccc1)N1CCCCCC1 (stereo unspecified),"inconclusive: 28.2 µM [inhibitor, partial curve, poor fit]",–
CCCCCn1c(=O)c(C(=O)Nc2c(C)n(C)n(-c3ccccc3)c2=O)c(O)c2ccccc21,"inconclusive: 0.199 µM [inhibitor, full curve, poor fit]",–
Cc1c(C(c2ccc(Br)cc2)c2c(O)c3ccccc3oc2=O)c(=O)n(-c2ccccc2)n1C (stereo unspecified),"inconclusive: 126 µM [inhibitor, single point]",–
CCc1ccc(N2C(=O)NC(=O)/C(=C\c3cc(C)n(-c4cc(C(=O)O)cc(C(=O)O)c4)c3C)C2=O)cc1,"inconclusive: 39.8 µM [inhibitor, partial curve, poor fit]",–
COC1=CC(C)=C[C@@H](C)[C@@H](O)[C@@H](C)CC(C)=CC=C[C@H](OC)[C@H]([C@@H](C)[C@@H](O)[C@H](C)[C@@]2(O)C[C@@H](O)[C@H](C)[C@@H](C(C)C)O2)OC1=O,"inconclusive: 0.485 µM [inhibitor, full curve, poor fit]",–
CCCOP(=O)(OCCC)C(NC(=O)c1cc(OC)c(OC)c(OC)c1)c1ccccc1 (stereo unspecified),–,inactive: 4.28%
CCOC(=O)c1sc(/N=C/c2c(O)n(-c3cccc(C)c3)c(=O)[nH]c2=O)c(C#N)c1C,"inconclusive: 44.7 µM [inhibitor, partial curve, poor fit]",–
O=C1NCc2ccccc2CC12CCCN(Cc1ccccn1)C2 (stereo unspecified),–,inactive: 80.9%
c1cc2cc(c1)C[n+]1ccc(c3ccccc31)NCc1ccc(cc1)CNc1cc[n+](c3ccccc13)C2,"inconclusive: 44.7 µM [inhibitor, partial curve, poor fit]",–
Cc1nn(-c2ccccc2)c2c1C(c1ccc3c(c1)OCO3)SCC(=O)N2 (stereo unspecified),"inconclusive: 50.1 µM [inhibitor, partial curve, poor fit]",–
S=C(c1ccc(Cl)cc1)N1CCOCC1,"inconclusive: 44.7 µM [inhibitor, partial curve]",–
O=C(N/N=C\C1C(=O)NC(=S)N(c2ccccc2)C1=O)c1ccc(O)cc1 (stereo unspecified),"inconclusive: 44.7 µM [inhibitor, partial curve, poor fit]",–
CC(=O)N1CCCC2(CC(c3cccnc3)=NO2)C1 (stereo unspecified),"inconclusive: 126 µM [inhibitor, single point]",–

# An excerpt from the list above, for reference:
Structure (SMILES),Potency,"activity change, negative = inhibition"
COC(=O)C1=CCCN(C)C1,"inactive and inconclusive: 12.2 µM [inhibitor, partial curve, poor fit]",–
COc1ccc(CN2CCN(C(=O)Cc3ccccc3)CC2)cc1OC,"inconclusive: 2.24 µM [inhibitor, full curve, poor fit]",–
C=C(C)[C@H]1Cc2c(ccc3c2O[C@@H]2COc4cc(OC)c(OC)cc4[C@@H]2C3=O)O1,"inconclusive: 21.7 µM [inhibitor, partial curve] and inconclusive: 63.1 µM [inhibitor, partial curve, poor fit]",–
CN(C)C(=O)Oc1ccc2c(=O)c(-c3ccccc3)coc2c1,"inconclusive: 50.1 µM [inhibitor, partial curve, poor fit]",–
COC(=O)C1=C(c2ccccc2OCc2ccccc2)C[C@@H]2CC[C@H]1N2C(=O)NC1CCN(Cc2ccccc2)CC1,"inconclusive: 112 µM [inhibitor, single point]",–
COC(=O)C(c1ccccc1)N1CCCCCC1 (stereo unspecified),"inconclusive: 28.2 µM [inhibitor, partial curve, poor fit]",–
CCCCCn1c(=O)c(C(=O)Nc2c(C)n(C)n(-c3ccccc3)c2=O)c(O)c2ccccc21,"inconclusive: 0.199 µM [inhibitor, full curve, poor fit]",–
Cc1c(C(c2ccc(Br)cc2)c2c(O)c3ccccc3oc2=O)c(=O)n(-c2ccccc2)n1C (stereo unspecified),"inconclusive: 126 µM [inhibitor, single point]",–
CCc1ccc(N2C(=O)NC(=O)/C(=C\c3cc(C)n(-c4cc(C(=O)O)cc(C(=O)O)c4)c3C)C2=O)cc1,"inconclusive: 39.8 µM [inhibitor, partial curve, poor fit]",–
COC1=CC(C)=C[C@@H](C)[C@@H](O)[C@@H](C)CC(C)=CC=C[C@H](OC)[C@H]([C@@H](C)[C@@H](O)[C@H](C)[C@@]2(O)C[C@@H](O)[C@H](C)[C@@H](C(C)C)O2)OC1=O,"inconclusive: 0.485 µM [inhibitor, full curve, poor fit]",–
CCCOP(=O)(OCCC)C(NC(=O)c1cc(OC)c(OC)c(OC)c1)c1ccccc1 (stereo unspecified),–,inactive: 4.28%
CCOC(=O)c1sc(/N=C/c2c(O)n(-c3cccc(C)c3)c(=O)[nH]c2=O)c(C#N)c1C,"inconclusive: 44.7 µM [inhibitor, partial curve, poor fit]",–
O=C1NCc2ccccc2CC12CCCN(Cc1ccccn1)C2 (stereo unspecified),–,inactive: 80.9%
c1cc2cc(c1)C[n+]1ccc(c3ccccc31)NCc1ccc(cc1)CNc1cc[n+](c3ccccc13)C2,"inconclusive: 44.7 µM [inhibitor, partial curve, poor fit]",–
Cc1nn(-c2ccccc2)c2c1C(c1ccc3c(c1)OCO3)SCC(=O)N2 (stereo unspecified),"inconclusive: 50.1 µM [inhibitor, partial curve, poor fit]",–
S=C(c1ccc(Cl)cc1)N1CCOCC1,"inconclusive: 44.7 µM [inhibitor, partial curve]",–
O=C(N/N=C\C1C(=O)NC(=S)N(c2ccccc2)C1=O)c1ccc(O)cc1 (stereo unspecified),"inconclusive: 44.7 µM [inhibitor, partial curve, poor fit]",–
CC(=O)N1CCCC2(CC(c3cccnc3)=NO2)C1 (stereo unspecified),"inconclusive: 126 µM [inhibitor, single point]",–

# Further results follow:

Structure (SMILES),Potency,"activity change, negative = inhibition"
Cc1ccc(N2C(=O)NC(=O)/C(=C/c3ccc(OC(=O)c4cccs4)cc3)C2=O)cc1,active: 44.7 µM,–
Cc1ccc(OCC(=O)N2CCN(Cc3ccc4c(c3)OCO4)CC2)cc1,"inconclusive: 8.91 µM [inhibitor, partial curve, poor fit]",–
COc1cccc(C(=O)N2CCC3(CC2)c2nccn2-c2ccccc2CN3C)c1OC,–,inactive: 41.9%
Cc1ccc(C(=O)N[C@@H](C)CN2C3=NC[C@@H](Cc4ccccc4)N3C[C@H]2Cc2ccc(O)cc2)cc1Br,"inconclusive: 126 µM [inhibitor, single point]",–
O=[N+]([O-])c1ccc(N(CCO)CCO)c2c1no[n+]2[O-],–,inactive: -7.11%
O=C(CN1CCOCC1)c1ccc2cc[nH]c2c1,"inconclusive: 44.7 µM [inhibitor, partial curve, poor fit]",–
O=C(c1ccc(-c2ccccc2)c(F)c1)C1CCCN(CCO)C1 (stereo unspecified),–,inactive: -6.61%
CN(C)C(=O)Oc1ccc(Br)cc1C(=O)Nc1ccc(F)c(Cl)c1,"inconclusive: 126 µM [inhibitor, single point]",–
O=C1NC(=O)N(Cc2ccc(F)cc2)C(=O)/C1=C\c1ccc([N+](=O)[O-])s1,"inconclusive: 112 µM [inhibitor, partial curve, poor fit]",–
O=c1c(-c2cccs2)ccc2n1C[C@H]1C[C@@H]2CN(C2CCOCC2)C1,"inconclusive: 28.2 µM [inhibitor, full curve]",–
COc1cc(OC)c(OC)cc1CNCCc1ccc(F)cc1,"inconclusive: 3.16 µM [inhibitor, full curve, poor fit]",–
CNC1Cc2ccccc2C1,–,inactive: -21.2%
CC(C)(C)n1nnnc1C(c1ccnc2ccccc12)N1CCC2(CC1)C(=O)NCN2c1ccccc1 (stereo unspecified),"inconclusive: 158 µM [inhibitor, partial curve, poor fit]",–
C=CCOc1ccc(CNCCc2ccc(OC)cc2)cc1,"inconclusive: 44.7 µM [inhibitor, partial curve, poor fit]",–
C=C(C)CSc1nnc(C(N)Cc2c[nH]c3ccccc23)o1 (stereo unspecified),–,inactive: 1.52%
N#Cc1ccccc1S(=O)(=O)N1C[C@@H]2C[C@H](C1)c1c(-c3ccccc3F)ccc(=O)n1C2,"inconclusive: 1 µM [inhibitor, full curve, poor fit]",–
CC1CCCN(CC(=O)c2ccc(Cl)c(Cl)c2)C1 (stereo unspecified),–,inactive: -14%
CCCC1=Nc2cc(C(=O)NCCCN(CC)CC)ccc2Sc2ccccc21,"inconclusive: 50.1 µM [inhibitor, partial curve, poor fit]",–
Cc1cc(OCC(=O)NC2CCS(=O)(=O)C2)c2c3c(c(=O)oc2c1)CCC3 (stereo unspecified),–,inactive: 0%
Cc1nn(Cc2ccccc2)c(C)c1C(=O)NCc1ccccc1F,–,inactive: -5.85%
N#Cc1c(N)nc2c(c1-c1ccc(OCc3ccccc3F)cc1)c(=O)nc1sccn12,"inconclusive: 50.1 µM [inhibitor, partial curve, poor fit]",–

Structure (SMILES),Potency,"activity change, negative = inhibition"
CN1Cc2ccccc2-n2ccnc2C12CCN(C(=O)c1cccc(Cl)c1)CC2,–,inactive: 14.6%
COc1cccc([C@@H]2CCN(Cc3[nH]c4ccccc4c3C)C[C@H]2O)c1,"inconclusive: 8.91 µM [inhibitor, full curve]",–
C=CCN(CC=C)Cc1c[nH]c2ccccc12,"inconclusive: 28.2 µM [inhibitor, single point]",–
COc1ccc(CNCCc2c(C)[nH]c3ccc(OC)cc23)c(F)c1,active: 1.58 µM,–
O=C1CCC2(O)C3Cc4ccc(O)c5c4C2(CCN3Cc2ccoc2)C1O5 (stereo unspecified),"inconclusive: 112 µM [inhibitor, partial curve, poor fit]",–
CCN(CCO)c1ccc(N=Cc2c(O)n(C)c(=S)[nH]c2=O)cc1,"inconclusive: 79.4 µM [inhibitor, partial curve, poor fit]",–
C(#CCN1CCOCC1)COC/C=C/c1ccccc1,"inconclusive: 39.8 µM [inhibitor, single point]",–
CCCCCN1C(=O)c2cc(OC)ccc2[C@@]2(C(=O)OCC)Cc3cc(OC)ccc3[C@@H]12,"inconclusive: 44.7 µM [inhibitor, partial curve, poor fit]",–
Cc1ccc(CN2C3CCCC2CC(NC(=S)NCc2ccccc2)C3)cc1 (stereo unspecified),"inconclusive: 39.8 µM [inhibitor, partial curve, poor fit]",–
CCn1cc(CN2CCN(C(=O)Cc3c(C)noc3C)CC2)ccc1=O,–,inactive: 25.5%
COC(=O)[C@@H](N)CCCN=C(N)N[N+](=O)[O-],"inconclusive: 44.7 µM [inhibitor, partial curve, poor fit]",–
O=C(O)C1=NOC2CN(CC3CCNC3)CC12 (stereo unspecified),"inconclusive: 17.8 µM [inhibitor, full curve, poor fit]",–
CCOC(=O)C1(c2ccccc2)CCN(Cc2cccc(C(=O)O)c2)CC1,"inconclusive: 44.7 µM [inhibitor, partial curve, poor fit]",–
COc1ccc(-n2nnnc2C(CCc2ccccc2)N2CCC3(CC2)C(=O)NCN3c2ccccc2)cc1 (stereo unspecified),"inconclusive: 100 µM [inhibitor, single point]",–
O=C1CN=C(c2ccccc2)c2ccccc2N1Cc1ccc(C(F)(F)F)cc1,–,inactive: 20.5%
Cc1cc(N2C(=O)C3CCCN3C2c2cccc(Cl)c2)no1 (stereo unspecified),"inconclusive: 35.5 µM [inhibitor, single point]",–
COC(=O)c1ccc(N=C(c2ccccc2)c2c(O)n(C)c(=O)n(C)c2=O)cc1,–,inactive: 0%
Cc1cc(C(=O)C(Cl)(Cl)Cl)c(C)n1C,"inconclusive: 50.1 µM [inhibitor, partial curve, poor fit]",–
COc1ccccc1C1SCC(=O)Nc2c1c(C)nn2-c1cccc(C)c1 (stereo unspecified),"inconclusive: 158 µM [inhibitor, partial curve, poor fit]",–
